Five molecules from publication PMC4548209 can be followed below.

Protein sequences, listed by entry. Tags and fused reporters are not part of them. Lines headed by an entry give the natural chain unless they say otherwise; changes in a name come on top.
UniProt P42582: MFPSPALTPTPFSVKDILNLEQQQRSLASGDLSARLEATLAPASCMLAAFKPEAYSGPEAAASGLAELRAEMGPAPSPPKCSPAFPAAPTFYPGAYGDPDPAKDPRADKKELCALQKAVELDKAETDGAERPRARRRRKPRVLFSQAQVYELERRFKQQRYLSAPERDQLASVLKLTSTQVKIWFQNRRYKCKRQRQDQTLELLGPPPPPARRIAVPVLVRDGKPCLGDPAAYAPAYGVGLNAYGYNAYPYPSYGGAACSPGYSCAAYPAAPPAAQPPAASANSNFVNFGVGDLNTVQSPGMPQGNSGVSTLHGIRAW
UniProt Q08369: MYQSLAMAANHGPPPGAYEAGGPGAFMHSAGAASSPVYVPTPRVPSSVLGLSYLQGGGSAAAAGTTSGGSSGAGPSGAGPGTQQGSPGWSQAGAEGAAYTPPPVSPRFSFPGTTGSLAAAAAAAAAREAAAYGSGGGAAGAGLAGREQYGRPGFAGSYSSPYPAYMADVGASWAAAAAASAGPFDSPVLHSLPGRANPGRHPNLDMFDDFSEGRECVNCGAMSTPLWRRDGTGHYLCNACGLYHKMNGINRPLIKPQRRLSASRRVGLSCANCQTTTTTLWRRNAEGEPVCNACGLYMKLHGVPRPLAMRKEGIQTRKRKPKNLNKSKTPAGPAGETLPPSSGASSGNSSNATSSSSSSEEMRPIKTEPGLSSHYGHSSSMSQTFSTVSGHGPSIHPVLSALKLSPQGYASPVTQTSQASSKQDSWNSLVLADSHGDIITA

Read-outs that look alike come from different tables or passages of the source. These are yes or no findings as the source states them, for the method shown. For part of these data: In cells and extracts the contact can be indirect. Some entries that bind do so weakly or less than the wild type. For part of these data: Where a sequence is shown, tags or fusion partners need not be part of it.

Test [1] addresses T1, TBX5 (Rluc-PCA fusion) (mouse) (UniProt P70326).
T1 sequence: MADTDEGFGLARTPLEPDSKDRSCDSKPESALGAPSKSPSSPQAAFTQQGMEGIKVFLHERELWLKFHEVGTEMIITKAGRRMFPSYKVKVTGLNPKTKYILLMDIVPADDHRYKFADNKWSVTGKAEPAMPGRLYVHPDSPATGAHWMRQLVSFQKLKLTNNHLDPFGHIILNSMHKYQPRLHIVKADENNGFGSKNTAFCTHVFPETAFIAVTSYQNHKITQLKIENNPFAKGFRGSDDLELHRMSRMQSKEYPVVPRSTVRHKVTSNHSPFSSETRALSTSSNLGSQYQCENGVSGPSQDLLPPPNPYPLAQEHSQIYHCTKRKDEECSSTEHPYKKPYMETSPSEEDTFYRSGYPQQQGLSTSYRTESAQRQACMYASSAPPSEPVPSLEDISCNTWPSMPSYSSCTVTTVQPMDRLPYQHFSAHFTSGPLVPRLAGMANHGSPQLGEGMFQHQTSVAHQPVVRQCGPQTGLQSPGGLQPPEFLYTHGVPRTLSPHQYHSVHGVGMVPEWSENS
Nature of the test: split reporter; Renilla luciferase protein fragment complementation assay (Rluc-PCA) in HEK 293T cells; Rluc8.1 and Rluc8.2 fusions from a truncated CMV promoter; read 24 hr after transfection, normalised to ß-galactosidase.

The target of test [2] is NKX2-5 WT (Rluc-PCA fusion) (mouse) (UniProt P42582). The description is as above.
Test [3] deals with GATA4 (Rluc-PCA fusion) (mouse) (UniProt Q08369). The description is as above.
For test [4], the target named is NKX2-5∆HD (NKX2-5 V142_Q199del) (Rluc-PCA fusion) (mouse) (UniProt P42582). The description is as above.
Test [5] concerns the target T2, TBX20 (Rluc-PCA fusion) (mouse) (UniProt Q9ES03).
T2 sequence: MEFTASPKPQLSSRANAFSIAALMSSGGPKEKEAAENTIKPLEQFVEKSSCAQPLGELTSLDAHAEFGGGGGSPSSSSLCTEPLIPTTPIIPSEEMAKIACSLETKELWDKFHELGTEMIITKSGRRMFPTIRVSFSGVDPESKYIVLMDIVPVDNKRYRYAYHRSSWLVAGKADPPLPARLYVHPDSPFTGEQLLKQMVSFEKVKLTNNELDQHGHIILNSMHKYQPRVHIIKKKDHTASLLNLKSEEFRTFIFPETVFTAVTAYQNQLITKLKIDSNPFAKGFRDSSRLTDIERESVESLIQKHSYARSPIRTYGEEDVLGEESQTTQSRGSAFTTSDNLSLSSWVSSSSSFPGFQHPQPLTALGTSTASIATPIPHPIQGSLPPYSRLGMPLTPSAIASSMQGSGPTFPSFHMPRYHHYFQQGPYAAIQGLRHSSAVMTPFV
The test is described as above.

Test [6] deals with Full-length NKX2-5 (yeast two-hybrid fusion) (mouse) (UniProt P42582). Nature of the test: two-hybrid; pGADT7-AD and pGBKT7-DBD fusions co-transformed into S. cerevisiae AH109; interaction as growth on -Ade/-His/-Leu/-Trp plates; three independent experiments.
For test [7], the target named is T3, ELK3 (Rluc-PCA fusion) (mouse) (UniProt P41971).
T3 sequence: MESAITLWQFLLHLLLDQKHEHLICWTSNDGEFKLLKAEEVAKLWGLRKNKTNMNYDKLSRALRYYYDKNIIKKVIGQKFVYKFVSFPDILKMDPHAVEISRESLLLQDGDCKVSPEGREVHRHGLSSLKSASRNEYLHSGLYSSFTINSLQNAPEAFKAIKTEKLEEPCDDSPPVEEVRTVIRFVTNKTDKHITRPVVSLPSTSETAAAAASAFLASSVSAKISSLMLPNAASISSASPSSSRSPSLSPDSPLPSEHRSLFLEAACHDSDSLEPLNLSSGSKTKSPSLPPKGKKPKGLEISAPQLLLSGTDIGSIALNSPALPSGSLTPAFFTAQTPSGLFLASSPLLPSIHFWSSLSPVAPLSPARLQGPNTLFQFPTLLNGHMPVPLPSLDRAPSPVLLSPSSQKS
In words: split reporter; Renilla luciferase protein fragment complementation assay (Rluc-PCA) in HEK 293T cells; Rluc8.1 and Rluc8.2 fusions from a truncated CMV promoter; read 24 hr after transfection, normalised to ß-galactosidase.

The target of test [8] is T4, GABPα (Rluc-PCA fusion) (mouse) (UniProt Q00422).
T4 sequence: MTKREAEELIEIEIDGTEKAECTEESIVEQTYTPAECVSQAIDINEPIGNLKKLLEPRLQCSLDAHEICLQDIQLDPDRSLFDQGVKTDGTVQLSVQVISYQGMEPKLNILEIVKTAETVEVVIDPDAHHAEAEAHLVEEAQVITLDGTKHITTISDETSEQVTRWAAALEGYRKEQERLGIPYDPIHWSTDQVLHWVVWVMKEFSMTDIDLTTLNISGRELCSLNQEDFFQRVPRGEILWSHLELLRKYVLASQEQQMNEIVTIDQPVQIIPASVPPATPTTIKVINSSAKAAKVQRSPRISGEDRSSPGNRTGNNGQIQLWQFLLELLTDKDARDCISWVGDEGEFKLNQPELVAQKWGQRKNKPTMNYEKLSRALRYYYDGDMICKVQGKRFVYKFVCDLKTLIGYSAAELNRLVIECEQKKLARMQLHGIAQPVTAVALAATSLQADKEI
The description is as above.

The target in test [9] is T5, ERF (Rluc-PCA fusion) (mouse) (UniProt P70459).
T5 sequence: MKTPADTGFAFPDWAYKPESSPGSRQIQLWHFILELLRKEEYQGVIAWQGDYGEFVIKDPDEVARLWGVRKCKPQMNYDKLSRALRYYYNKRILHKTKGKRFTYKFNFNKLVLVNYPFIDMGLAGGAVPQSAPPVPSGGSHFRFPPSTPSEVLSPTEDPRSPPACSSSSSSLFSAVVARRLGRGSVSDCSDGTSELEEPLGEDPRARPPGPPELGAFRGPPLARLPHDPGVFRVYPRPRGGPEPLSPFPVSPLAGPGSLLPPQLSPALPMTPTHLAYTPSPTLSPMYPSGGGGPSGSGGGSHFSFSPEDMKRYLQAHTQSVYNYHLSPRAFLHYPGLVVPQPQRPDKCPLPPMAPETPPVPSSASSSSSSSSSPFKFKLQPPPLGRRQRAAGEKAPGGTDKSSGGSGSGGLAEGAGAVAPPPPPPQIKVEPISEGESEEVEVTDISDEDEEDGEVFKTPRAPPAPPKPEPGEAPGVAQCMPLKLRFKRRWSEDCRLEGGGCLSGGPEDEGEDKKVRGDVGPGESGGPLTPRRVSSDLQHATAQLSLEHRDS
Described as above.

Test [10] has as its target T6, ETS1 (Rluc-PCA fusion) (mouse) (UniProt P27577).
T6 sequence: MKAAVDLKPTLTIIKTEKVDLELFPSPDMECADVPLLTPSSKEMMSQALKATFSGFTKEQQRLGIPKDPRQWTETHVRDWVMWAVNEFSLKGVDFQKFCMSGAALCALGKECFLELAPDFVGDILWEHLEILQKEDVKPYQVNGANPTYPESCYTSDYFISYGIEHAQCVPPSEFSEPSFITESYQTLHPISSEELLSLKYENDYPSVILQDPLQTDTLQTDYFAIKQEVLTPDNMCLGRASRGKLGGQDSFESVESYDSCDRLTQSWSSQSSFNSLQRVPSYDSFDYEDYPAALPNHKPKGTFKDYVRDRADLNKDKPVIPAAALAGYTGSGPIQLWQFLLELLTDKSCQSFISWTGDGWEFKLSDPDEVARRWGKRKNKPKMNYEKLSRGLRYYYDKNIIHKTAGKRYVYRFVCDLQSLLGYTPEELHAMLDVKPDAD
Described as above.

Test [11] addresses T1, TBX5 (Rluc-PCA fusion) (mouse). Described as above. This is another data set of the same source.
In test [12] the target is T7, SRF (Rluc-PCA fusion) (mouse) (UniProt Q9JM73).
T7 sequence: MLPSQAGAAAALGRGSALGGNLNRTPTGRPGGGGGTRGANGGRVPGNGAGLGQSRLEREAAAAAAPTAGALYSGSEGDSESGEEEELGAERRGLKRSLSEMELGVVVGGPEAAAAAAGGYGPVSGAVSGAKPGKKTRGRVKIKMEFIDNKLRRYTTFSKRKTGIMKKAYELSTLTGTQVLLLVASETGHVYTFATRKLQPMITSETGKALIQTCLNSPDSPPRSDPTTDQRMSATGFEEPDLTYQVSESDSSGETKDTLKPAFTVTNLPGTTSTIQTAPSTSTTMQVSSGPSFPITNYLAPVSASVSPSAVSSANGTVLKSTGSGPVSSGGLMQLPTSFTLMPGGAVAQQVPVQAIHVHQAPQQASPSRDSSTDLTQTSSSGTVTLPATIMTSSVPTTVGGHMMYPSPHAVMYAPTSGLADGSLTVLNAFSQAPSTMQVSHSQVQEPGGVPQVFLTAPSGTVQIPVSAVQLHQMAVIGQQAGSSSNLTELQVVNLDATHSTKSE
Described as above.

In test [13] the target is NKX2-5 WT (Rluc-PCA fusion) (mouse) (UniProt P42582). The test is described as above. This is another data set of the same source.
The target in test [14] is NKX2-5∆HD (NKX2-5 V142_Q199del) (Rluc-PCA fusion) (mouse) (UniProt P42582). Described as above. The source holds these as a separate data set.

In the case of “NKX2-5∆HD (NKX2-5 V142_Q199del) (Rluc-PCA fusion) (from UniProt P42582 1-141; P42582 200-318)”, the binding result in test [1], in test [2], in test [3], in test [4] and in test [5] was “binds” each time.

As for “NKX2-5 HD (aa137-196) (yeast two-hybrid fusion) (from UniProt P42582 137-196) (domain or fragment)”, the binding entry in test [6] is “binds”.

In the case of “NKX2-5 WT (Rluc-PCA fusion) (from UniProt P42582 1-318)”, the binding entry in test [7], in [8], in test [9] and in test [10] was “binds” in each case.

In the case of “NKX2-5 N-terminal region (aa1-135) (yeast two-hybrid fusion) (from UniProt P42582 1-135) (domain or fragment)”, the binding result in [6] is “no binding”.

B1: ELK4 (Rluc-PCA fusion) (protein, UniProt P41158 1-430)
chain: MDSAITLWQFLLQLLQEPQNEHMICWTSNNGEFKLLQAEEVARLWGIRKNKPNMNYDKLSRALRYYYVKNIIKKVNGQKFVYKFVSYPEILKMDPLTVGRIEGDCEALNSIETSSSKDVEYGGKERPPQPGAKTSSRNDYIHSGLYSSFTLNSLNTSNKKLFKSIKIENPAEKLAEKKAQEPTPSVIKFVTTPAKKPPIEPVAAAFATSPSLSPSSEETIQALETLVSPTLPSLETPASISILATTFNPTPPVPSTPLPLKEPPRTPSPPLSSNPDIDTDIESVASQPMELPENLSLEPKNEDSALPEKDKTNNSSRSKKPKGLELTPALVVTGSDPSPLGILSPSLPTASLTPALFSQTPILLTPSPLLSSIHFWSTLSPFAPLSPARLQGANTLFQFPSVLNSHGPFTLSGLDGPSTPGPFSPDLQKT
As to B1, the binding result in test [11], in test [12], in test [13] and in test [14] was “binds” in each case.
